The nature of the test: qHTS Assay for Lipid Storage Modulators in Drosophila S3 Cells.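 On cell number change: cells counted by Cell Tracker Red CMTPX staining in the red channel.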 The following applies: BODIPY lipid droplet fluorescence, 18-24 h; for cell number change: measured here: cell count max response, cells fed with added oleic acid. The essentials: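 Drosophila S3 cells got compounds at several concentrations plus oleic acid (400 uM solution). Laser-scanning cytometry with 488 nm excitation read lipid droplets at 500-530 nm and cells at 575-640 nm. Percent activity was relative to 20 uM Triacsin C.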

Where [1] appears, read: measured here: cell number channel AC50, cells fed with added oleic acid.
Setting [2] is: measured here: lipid fluorescence (Fed channel) AC50, cells fed with added oleic acid.

From PubChem BioAssay AID2685 (National Center for Advancing Translational Sciences (NCATS), 2010) come the findings set out here.

The structures appear in SMILES notation. Some of the results follow. The main result of the screen is listed elsewhere. These columns were measured beside it and carry no call. The list favours compounds with an active or inconclusive main result. Potencies come from curve fits of mixed quality, noted in brackets.

Broadly, the AC50 is the concentration giving half of the maximal activity seen. Read a low AC50 as greater potency. Turning to `CCOC(=O)c1ccc2c(c1)nc(SCC(=O)N1CCOCC1)n2CC`, the cell number change was -18.5%. Besides, the concentration at half-maximal activity (AC50) under setting [1] was 0.00517 µM [falling, full curve, poor fit].
As for `CC1=CC(=O)N(c2ccn(C)n2)C1=O`, the cell number change is -1.32%. Besides, the concentration at half-maximal activity (AC50) under setting [1] is 7.31 µM [falling, partial curve, poor fit]. Also, the AC50 under setting [2] was 6.51 µM [falling, single point].
Take `CSc1nnc([C@H](C)NC(=O)OC(C)(C)C)o1`: the cell number change turned out to be 0.391%.
Take `COc1ccc2nc(SC(C)C(=O)NC3(C#N)CCCCC3)[nH]c2c1` (stereo not given): the cell number change is -8.06%. Besides, the half-maximal activity concentration (AC50) under setting [2] was 1.16 µM [falling, full curve, poor fit].
Take `COc1c(Cl)cc(C(=O)NCc2ccco2)cc1Cl`: the cell number change was -20.4%.
As for `O=C(CSc1ccc2nnc(-c3cccnc3)n2n1)Nc1cccc(F)c1`, the cell number change is -1.73%. The concentration at half-maximal activity (AC50) under setting [2] was 29.1 µM [falling, single point].
`Cc1ccc(NC2SC(=O)N(CC(=O)O)C2=O)cc1` (stereo not given): under setting [2], the concentration at half-maximal activity (AC50) is 6.51 µM [falling, single point].
Take `CCOC(=O)N1CCN(c2ncnc3c2cnn3-c2ccc(OC)cc2)CC1`: the cell number change is -51%. In addition, the half-maximal activity concentration (AC50) under setting [1] was 25.9 µM [falling, partial curve, poor fit]. For the same compound, under setting [2], the half-maximal activity concentration (AC50) was 29.1 µM [falling, single point].
On to `C[n+]1ccccc1Nc1cc([N+](=O)[O-])ccc1N`, for which the cell number change turned out to be 7.62%. For the same compound, under setting [2], the concentration at half-maximal activity (AC50) was 6.51 µM [rising, single point].
Take `COc1cc(OC)cc(C(=O)NC2CCSc3ccccc32)c1` (stereo not given): the cell number change came to 13.9%. For the same compound, the AC50 under setting [2] was 6.51 µM [falling, single point].
Turning to `O=C(/C=C/c1cccc([N+](=O)[O-])c1)NCC1CCCO1` (stereo not given), the concentration at half-maximal activity (AC50) under setting [2] is 0.206 µM [rising, full curve, poor fit].
On to `Cc1cccc(NC(=O)CSCc2cc(=O)n3c(C)csc3n2)c1C`, for which the cell number change came to 2.39%.
As to `O=C1c2ccccc2C(=O)N1CC#CCN1CCN(C(c2ccccc2)c2ccccc2)CC1`, the cell number change was determined as 14.4%. Further, the AC50 under setting [2] is 0.13 µM [rising, full curve, poor fit].
In the case of `COc1ccc(CCNC(=O)CN2CCN(c3cccc(Cl)c3)CC2)cc1OC`, the cell number change is -3.61%.
Regarding `O=C(CC1Oc2ccccc2NC1=O)NCCc1ccccc1` (stereo not given), the cell number change was 8.63%. Besides, the AC50 under setting [2] is 4.11 µM [rising, full curve, poor fit].
In the case of `CC(=O)Nc1ccc(S(=O)(=O)N2CCN(c3cc(C)ccc3C)CC2)cc1`, the cell number change amounted to 13.7%. Further, the AC50 under setting [2] is 13 µM [rising, partial curve, poor fit].
In the case of `N/C(=N\OC(=O)c1ccc2c(c1)OCO2)c1ccc([N+](=O)[O-])cc1`, the cell number change amounted to 15.7%. For the same compound, the concentration at half-maximal activity (AC50) under setting [2] is 0.731 µM [rising, full curve].
Regarding `CCOC(=O)N1CCN(c2cc(C)c(C(C)=O)cc2F)CC1`, the cell number change was determined as 6.14%.
As to `COCCNC(=S)Nc1ccc(Cl)c(Cl)c1`, the cell number change is -12.2%. For the same compound, the AC50 under setting [1] was 4.61 µM [falling, partial curve, poor fit]. Moreover, under setting [2], the AC50 was 6.51 µM [falling, single point].
Consider `CCOC(=O)c1sc2nccc(OC)c2c1N=CNOC`, for which the cell number change is 0.652%.
`CCCC(=O)Nc1ccc(Br)cn1`: the cell number change is -1.11%. In addition, the concentration at half-maximal activity (AC50) under setting [2] was 29.1 µM [falling, partial curve].
For the compound `Nc1nnc(CSCc2cccc(Br)c2)s1`, the cell number change is -26.3%. For the same compound, under setting [2], the AC50 was 1.3 µM [falling, partial curve, poor fit].
Turning to `COc1ccc(NC(=O)CN(C)C(=O)CCNC(=O)Nc2ccccc2)cc1`, the AC50 under setting [2] was 14.6 µM [rising, single point].
`Cc1ccc(-c2nc(-c3ccccn3)no2)cc1Cl`: the cell number change is -25.5%. The concentration at half-maximal activity (AC50) under setting [2] was 16.4 µM [rising, partial curve].
In the case of `COCCNC(=O)CC(=O)N/N=C/c1cccc(C(=O)OC)c1`, the cell number change was found to be 22.6%. In addition, under setting [2], the concentration at half-maximal activity (AC50) was 29.1 µM [rising, single point].
As to `CCCCNCCOCCOc1ccc(Cl)cc1Br`, the AC50 was 0.164 µM [rising, full curve, poor fit] under setting [1] and 6.51 µM [rising, single point] under setting [2].
For `Cc1nnc(SCC(=O)Nc2ccccc2F)n1-c1ccc(F)cc1`, the cell number change was 18.6%. Besides, the half-maximal activity concentration (AC50) under setting [2] is 0.0291 µM [rising, full curve, poor fit].
On to `COC(=O)Cn1c(=NC(=O)c2cc(OC)c(OC)c(OC)c2)sc2cc(OC)ccc21`, for which the cell number change was found to be 57.9%. Moreover, the AC50 under setting [1] is 8.2 µM [rising, partial curve]. Besides, the AC50 under setting [2] is 5.17 µM [rising, full curve].
On to `O=C(/C=C/c1ccc([N+](=O)[O-])cc1)/C=C/c1ccco1`, for which the cell number change is 12.9%. Moreover, under setting [2], the AC50 was 11.6 µM [falling, single point].
On to `CCOc1ccc(NS(=O)(=O)c2ccc(C(=O)NNC(=O)c3ccccc3O)cc2)cc1`, for which the cell number change was -11.9%. Also, the AC50 under setting [2] is 3.66 µM [falling, single point].
`CN1C(=O)CC(N2CCN(C(c3ccccc3)c3ccccc3)CC2)C1=O` (stereo not given): the cell number change came to 4.79%. Under setting [2], the AC50 is 20.6 µM [falling, single point].
Turning to `C/C(=N\NC(=O)c1ccc(NS(=O)(=O)c2cccs2)cc1)c1cccs1`, the cell number change is -9.61%. Further, the concentration at half-maximal activity (AC50) under setting [1] is 0.731 µM [falling, single point]. The concentration at half-maximal activity (AC50) under setting [2] was 0.651 µM [falling, full curve].
For the compound `COCCSc1nc2c(c(=O)[nH]c(=O)n2C)n1CCC(C)C`, the cell number change was -7.19%. Also, the half-maximal activity concentration (AC50) under setting [2] is 0.164 µM [falling, full curve, poor fit].
For the compound `O=c1c(C=Nc2cccc(C(F)(F)F)c2)c[nH]n1-c1cccc(Cl)n1`, the cell number change is -8.65%. Besides, the AC50 under setting [2] was 0.651 µM [rising, full curve].
In the case of `COc1ccc(NC(=O)CNc2cccc(C#N)c2)cc1Cl`, the cell number change came to 6.43%. The AC50 under setting [2] is 6.51 µM [rising, single point].
For the compound `CCOC(=O)CSc1nnc(NC(=O)c2ccc3c(c2)OCO3)s1`, the cell number change was found to be 19.9%. Moreover, the AC50 under setting [2] was 0.58 µM [rising, single point].
Consider `COc1cccc(C2c3[nH]c4ccccc4c3CCN2Cc2cnn(C)c2)c1` (stereo not given), for which the AC50 under setting [2] was 7.31 µM [falling, single point].
Take `COc1ccc2c(c1)NC1(O)c3ccccc3C(=O)C21O` (stereo not given): the cell number change is -5.28%. The concentration at half-maximal activity (AC50) under setting [2] was 0.184 µM [falling, full curve, poor fit].
With `Clc1ccc2[nH]cc(-c3nnnn3-c3ccc4ccccc4c3)c2c1`, the cell number change came out at 74.9%. Also, under setting [1], the AC50 is 9.2 µM [rising, partial curve]. The AC50 under setting [2] was 2.31 µM [rising, partial curve].
On to `O=C(CN1CCCCCC1)Nc1ccc([N+](=O)[O-])cc1Br`, for which the cell number change came out at 7.98%.
In the case of `O=C(NCC1CCCO1)c1nn2c(C(F)(F)F)cc(-c3cccs3)nc2c1Br` (stereo not given), the cell number change worked out at 15%.
`O=C(Nc1c2c(nn1-c1ccccc1)CS(=O)(=O)C2)c1ccccc1Br`: the cell number change is -11.8%. The half-maximal activity concentration (AC50) under setting [2] was 0.731 µM [rising, single point].
Regarding `CC1=[N+](C)c2c(ccc3cccnc23)C1(C)C`, the cell number change was -50.5%. Also, the AC50 under setting [1] is 4.11 µM [falling, full curve]. Besides, the AC50 under setting [2] was 2.31 µM [falling, full curve].
On to `O=C(Nc1ccccc1)c1ccc(NCc2ccco2)c(S(=O)(=O)N2CCOCC2)c1`, for which the AC50 under setting [1] was 6.51 µM [rising, single point].
In the case of `N/C(=N\S(=O)(=O)c1cc(C(F)(F)F)cc(C(F)(F)F)c1)c1ccccc1`, the cell number change is -49.4%. The AC50 under setting [1] was 5.17 µM [falling, partial curve]. Moreover, the AC50 under setting [2] is 4.61 µM [falling, partial curve].
For the compound `CCOC(=O)N1CCN(C(=O)c2noc3c2COc2ccccc2-3)CC1`, the cell number change was -1.42%.
In the case of `CCOC(=O)CSc1nnc(CCCCCN2C(=O)c3cccc4cccc(c34)C2=O)o1`, the half-maximal activity concentration (AC50) runs as follows: under setting [1], 0.731 µM [rising, single point]; under setting [2], 18.4 µM [rising, partial curve].
On to `COc1cccc(CNC(=O)c2cccnc2Sc2ccc(C)cc2C)c1`, for which the cell number change was 16.4%.
For `Cc1ccc(NC(=O)C(OC(=O)c2ccc(NC(N)=O)cc2)c2ccccc2)cc1Cl` (stereo not given), the cell number change was -41.4%. For the same compound, the concentration at half-maximal activity (AC50) under setting [1] is 29.1 µM [falling, single point]. In addition, under setting [2], the AC50 is 29.1 µM [falling, single point].
Consider `COc1ccccc1N=Nc1c(C)[nH]n(-c2ccccc2)c1=O`, for which the AC50 under setting [2] is 13 µM [falling, partial curve].
On to `N#CCCNS(=O)(=O)c1ccc(C(=O)OCCCOC(=O)c2ccc(S(=O)(=O)NCCC#N)cc2)cc1`, for which the cell number change is 14.1%. In addition, the AC50 under setting [2] is 29.1 µM [rising, single point].
Take `CCN(CC)CCNC(=O)C(=O)Nc1cc2c3c(c1)CCN3C(=O)CC2`: the cell number change was -30.6%.
Turning to `Cc1ccc(NC(=O)c2nnn(CC(=O)Nc3ccccc3)c2N)cc1C`, under setting [1], the concentration at half-maximal activity (AC50) is 1.16 µM [rising, partial curve].
Consider `CCOc1ccc(C(=O)Nc2c(C(N)=O)oc3ccccc23)cc1`, for which the cell number change is -26.9%. Under setting [2], the half-maximal activity concentration (AC50) is 29.1 µM [falling, single point].
Take `COc1ccc2c(c1)CCc1c(C(=O)N3CCCCCC3)noc1-2`: the cell number change is -22.6%.
On to `CCN(CC(=O)Nc1c(F)cccc1F)C(=O)c1cc2ccccc2oc1=O`, for which the cell number change is -13.8%. Moreover, under setting [2], the AC50 is 16.4 µM [rising, single point].
In the case of `Cc1cc2c(cc1C)CSC(c1c(O)ccc3ccccc13)SC2`, the cell number change was -41.7%. Besides, the AC50 under setting [1] is 29.1 µM [falling, single point]. For the same compound, the AC50 under setting [2] was 29.1 µM [falling, single point].
Turning to `COc1cc(/C=C/C(=O)OCC(=O)NCc2ccco2)ccc1O`, the cell number change stood at 32.9%. The AC50 under setting [1] was 13 µM [rising, single point].
In the case of `O=C(c1ccncc1)N1C2C=CC(C2)C1(C(F)(F)F)C(F)(F)F` (stereo not given), the cell number change was 38%. Besides, under setting [1], the concentration at half-maximal activity (AC50) is 29.1 µM [rising, single point].
As to `COc1cccc(CN2CCNC(=O)C2CC(=O)N(C)CC2CCOCC2)c1OC` (stereo not given), the cell number change amounted to 19.4%.
As for `O=C(OC(C(=O)NCc1ccco1)C(OC(=O)c1ccccc1)C(=O)NCc1ccco1)c1ccccc1` (stereo not given), the cell number change is -5.31%. The AC50 under setting [2] was 0.058 µM [falling, full curve, poor fit].
As for `Cn1cnnc1SCNC(=O)C(F)(F)F`, the cell number change is -5.85%. Under setting [2], the half-maximal activity concentration (AC50) was 0.517 µM [falling, full curve].
As for `Cc1nc2ccccn2c1C(=O)N/N=C/c1ccc(F)cc1`, the AC50 under setting [2] was 29.1 µM [rising, partial curve, poor fit].
